PubChem BioAssay AID1259415 (National Center for Advancing Translational Sciences (NCATS), 2018)
Values joined by “and” are separate entries in the source; they are usually repeats but may differ in a detail not shown here. Equal values may be shown once. The whole screen tested about 410,000 compounds, of which about 18,000 (4.4%) were called active. Inconclusive results, whose numbers are uncertain, are shown with a selection of clear calls. Rule as the data show it: active = activity change below about -60%; inconclusive = no clear call, values can overlap the other calls; inactive = above about -39%.

Assay: qHTS Assay for inhibitors of the human cytomegalovirus (HCMV)
Details: HFF cells, HCMV-luciferase reporter, 72 h; at 57.5 µM; hits give low values
Summary of the method: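 Two-dose cell screen: HFF monolayers treated with compounds and infected with luciferase-expressing HCMV at 1 PFU/cell, 72 h at 37C, then lysed for luciferase measurement.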
% is scaled to controls: 0 for no effect and ±100 for the full control effect.

Row | SMILES | activity change, negative = inhibition
1 | Nc1nc(N)c2c(ccc3c2ccn3Cc2cccc([N+](=O)[O-])c2)n1 | active: -99.1%
2 | CC1=CC(C)(C)n2c(O)c(N=N)c3c(C)ccc1c32 | inconclusive: -50.3%
3 | Cc1ccccc1Sc1c(C#N)c(-c2ccccc2)nn1C | inconclusive: -54.2%
4 | CCOC(=O)C1CCN(S(=O)(=O)c2ccc(OC)c(C(=O)N3CCCCCC3)c2)CC1 | inactive: 24%
5 | CN1CCN(CC(O)COc2ccc(C34CC5CC(CC(C5)C3)C4)cc2)CC1 (centres undefined) | inconclusive: -47.6%
6 | O=C(c1ccccc1)N1CCc2cc(CNS(=O)(=O)c3ccc(Cl)s3)ccc21 | active: -70.3%
7 | CCc1ccc(N(CC)C(=O)c2ccc3c(Cl)c4c(nc3c2)CCC4)cc1 | inactive: -22.1%
8 | COc1cc(NC(=O)CSc2nc3ccccc3cc2Cc2ccccc2)cc(OC)c1 | inconclusive: -41.9%
9 | CCOc1cc(C(=O)NC(=S)Nc2ccc(Cl)c(C(=O)O)c2)cc(OCC)c1OCC | inconclusive: 0%
10 | Oc1ccccc1CN(Cc1ccco1)CC(O)COCc1ccc(Cl)cc1 (centres undefined) | inconclusive: -42.2%
11 | O=C(CN1CCCC1)Nc1ccc(-c2nc3cc(NC(=O)CN4CCCC4)ccc3o2)cc1 | active: -100%
12 | COC(=O)CC1OCC=C2CN3CCC45C6=CC(=O)C(=O)C([N+](=O)[O-])=C6NC4C1C2CC35 (centres undefined) | inconclusive: -45.4%
13 | Cc1ccc(-c2cn(-c3ccccc3)c3[n+]2CCCS3)cc1 | active: -84.9% and active: -92.6%
14 | CCCCn1c(Oc2ccc(C(=O)OC)cc2)nc2c1c(=O)n(C)c(=O)n2C | inconclusive: -47.8%
15 | CC(C)c1ccc(Nc2c(-c3ccccn3)nc3ccccn23)cc1 | active: -87%
16 | Cc1cccnc1NC1CCCCC1 | inconclusive: -45.2%
17 | C=CCNC(=S)/N=C/c1c(O)[nH]c(=O)[nH]c1=O | inconclusive: -40.3%
18 | CS(=O)(=O)N1N=C(c2cccs2)CC1c1ccccc1F (centres undefined) | inconclusive: -50%
19 | Cc1occc1C(=O)N1CCCC(Nc2ccc(C(C)C)cc2)C1 (centres undefined) | active: -64.7%
20 | CN1C(=S)N(c2cccnc2)C(=O)/C1=C\c1ccc(N(C)C)cc1 | active: -63.7%
21 | COC(=O)C1=C(C)N(Cc2cccc(C(F)(F)F)c2)C(=NCc2ccc3c(c2)OCO3)NC1c1ccc(Cl)cc1 (centres undefined) | inactive: -14.5%
22 | O=C(c1ccncc1)N1CCN(c2ccc3ccccc3n2)CC1 | inconclusive: -52.7%
23 | COc1ccc(CCNC(=O)CCSc2nc(-c3ccco3)cc(C(F)(F)F)n2)cc1 | inconclusive: -40.3%
24 | O=C(NCCc1ccc(Cl)cc1)C1CCN(S(=O)(=O)c2ccc3[nH]ccc3c2)CC1 | inactive: -6.64%

Gathered by group: the compounds so far with a nitro group on carbon
Row | SMILES | activity change, negative = inhibition
1 | Nc1nc(N)c2c(ccc3c2ccn3Cc2cccc([N+](=O)[O-])c2)n1 | active: -99.1%
12 | COC(=O)CC1OCC=C2CN3CCC45C6=CC(=O)C(=O)C([N+](=O)[O-])=C6NC4C1C2CC35 (centres undefined) | inconclusive: -45.4%
